Here are results for 2 substances from publication PMC3584050.

Protein sequences, listed by entry. Tags and fused reporters are not part of them.
UniProt Q9GZT9: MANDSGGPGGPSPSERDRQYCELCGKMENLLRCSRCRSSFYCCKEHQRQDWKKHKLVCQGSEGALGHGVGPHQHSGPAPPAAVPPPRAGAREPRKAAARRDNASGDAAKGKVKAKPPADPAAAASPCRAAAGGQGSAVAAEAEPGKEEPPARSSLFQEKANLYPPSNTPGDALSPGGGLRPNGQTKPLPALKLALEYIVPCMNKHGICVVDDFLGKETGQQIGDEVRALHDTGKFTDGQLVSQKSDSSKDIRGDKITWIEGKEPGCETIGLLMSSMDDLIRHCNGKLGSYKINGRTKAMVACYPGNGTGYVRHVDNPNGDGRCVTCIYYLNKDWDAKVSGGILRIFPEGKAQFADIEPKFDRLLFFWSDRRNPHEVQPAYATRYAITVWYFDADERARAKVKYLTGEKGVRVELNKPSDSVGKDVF
UniProt Q9NNX6: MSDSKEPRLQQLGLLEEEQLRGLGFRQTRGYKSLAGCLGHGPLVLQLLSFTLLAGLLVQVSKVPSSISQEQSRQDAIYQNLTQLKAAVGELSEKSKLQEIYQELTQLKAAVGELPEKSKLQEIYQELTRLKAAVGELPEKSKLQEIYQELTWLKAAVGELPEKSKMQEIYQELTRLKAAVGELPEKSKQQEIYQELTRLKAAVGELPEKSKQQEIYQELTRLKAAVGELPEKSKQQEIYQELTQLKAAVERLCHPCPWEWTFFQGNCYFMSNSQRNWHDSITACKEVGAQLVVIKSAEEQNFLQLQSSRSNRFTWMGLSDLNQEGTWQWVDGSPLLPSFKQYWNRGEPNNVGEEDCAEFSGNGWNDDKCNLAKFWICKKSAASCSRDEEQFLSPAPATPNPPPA
UniProt Q9H2X3: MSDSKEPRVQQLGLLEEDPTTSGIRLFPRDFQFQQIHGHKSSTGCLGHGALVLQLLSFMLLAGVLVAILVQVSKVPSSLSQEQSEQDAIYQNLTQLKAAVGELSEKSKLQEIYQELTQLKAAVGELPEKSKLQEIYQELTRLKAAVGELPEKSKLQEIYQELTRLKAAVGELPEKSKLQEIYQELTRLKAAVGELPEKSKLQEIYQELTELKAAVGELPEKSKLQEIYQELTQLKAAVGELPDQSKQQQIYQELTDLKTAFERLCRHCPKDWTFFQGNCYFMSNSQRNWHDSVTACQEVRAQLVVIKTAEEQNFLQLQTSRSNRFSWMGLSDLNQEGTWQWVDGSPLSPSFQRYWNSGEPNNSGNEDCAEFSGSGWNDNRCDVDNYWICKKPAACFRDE

No constants are given. Whether binding was seen depends on the method and setting. In cells and extracts the contact can be indirect.

For this assay, the target named is GST-tagged EglN1 (UniProt Q9GZT9). Description: pull-down; 293T cells co-transfected with DC-SIGN or DC-SIGNR and GST-tagged bait; lysed in NP-40 lysis buffer (0.5% NP-40, 150 mM NaCl, 50 mM HEPES pH 7.5); glutathione-sepharose beads, three washes in lysis buffer; western blot for DC-SIGN/R; repeated with EndoH or PNGaseF digestion, and with HA-ubiquitin co-transfected and chloroquine, MG132 or DMSO treatment of the cells. A general note: In western blotting, separated proteins are transferred to a membrane and probed.

For the substance “DC-SIGN (dendritic cell-specific ICAM-3 non-grabbing integrin, CD209) (from UniProt Q9NNX6 1-404) (receptor)”, the binding result is on record as “no binding”.
The result for “DC-SIGNR (CD209R) (from UniProt Q9H2X3 1-399) (receptor)” reads “no binding”.
